The record followed here is publication PMC8997160.

Protein sequences, listed by entry. Tags and fused reporters are not part of them.
UniProt O95067: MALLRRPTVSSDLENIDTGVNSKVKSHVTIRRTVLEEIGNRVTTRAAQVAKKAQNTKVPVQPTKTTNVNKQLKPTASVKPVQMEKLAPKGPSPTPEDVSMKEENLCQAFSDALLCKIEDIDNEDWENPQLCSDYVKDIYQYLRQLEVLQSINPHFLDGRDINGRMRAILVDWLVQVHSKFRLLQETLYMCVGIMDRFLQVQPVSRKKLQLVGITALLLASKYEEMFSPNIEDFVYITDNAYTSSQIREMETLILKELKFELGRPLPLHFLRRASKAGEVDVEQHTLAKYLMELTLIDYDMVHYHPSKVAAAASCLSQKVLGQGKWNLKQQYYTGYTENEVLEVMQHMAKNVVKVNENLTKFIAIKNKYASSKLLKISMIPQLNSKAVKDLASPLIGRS
UniProt P24385: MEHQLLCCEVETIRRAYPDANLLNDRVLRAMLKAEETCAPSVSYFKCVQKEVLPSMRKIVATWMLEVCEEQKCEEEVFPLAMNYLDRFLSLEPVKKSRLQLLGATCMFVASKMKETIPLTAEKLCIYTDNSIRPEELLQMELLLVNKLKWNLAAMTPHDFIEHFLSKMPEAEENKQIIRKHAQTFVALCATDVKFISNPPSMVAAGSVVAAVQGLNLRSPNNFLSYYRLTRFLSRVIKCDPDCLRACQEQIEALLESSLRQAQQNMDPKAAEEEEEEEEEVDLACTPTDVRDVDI

No constants are given. Whether binding was seen depends on the method and setting. Binding seen in cells or lysates may run through a third protein. A yes stands for co-enrichment or nearness to the bait. Other partners may have been found.

Sequences and labels used below:
T1: SMYD3 (human (endogenous in D283)) (UniProt Q9H7B4)
T1 sequence: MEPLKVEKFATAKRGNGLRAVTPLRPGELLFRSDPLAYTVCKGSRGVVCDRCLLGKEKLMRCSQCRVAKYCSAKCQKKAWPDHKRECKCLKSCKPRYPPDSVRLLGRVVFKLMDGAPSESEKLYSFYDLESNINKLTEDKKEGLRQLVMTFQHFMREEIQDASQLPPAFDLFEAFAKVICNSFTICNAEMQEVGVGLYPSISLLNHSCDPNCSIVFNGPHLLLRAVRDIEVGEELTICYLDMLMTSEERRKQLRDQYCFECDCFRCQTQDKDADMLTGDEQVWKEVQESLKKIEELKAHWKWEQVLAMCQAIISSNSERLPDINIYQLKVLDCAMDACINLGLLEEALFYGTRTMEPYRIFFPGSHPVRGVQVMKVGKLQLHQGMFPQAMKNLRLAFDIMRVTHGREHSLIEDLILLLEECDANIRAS

B1: KDM2A (protein, UniProt Q9Y2K7 1-1162)
chain: MEPEEERIRYSQRLRGTMRRRYEDDGISDDEIEGKRTFDLEEKLHTNKYNANFVTFMEGKDFNVEYIQRGGLRDPLIFKNSDGLGIKMPDPDFTVNDVKMCVGSRRMVDVMDVNTQKGIEMTMAQWTRYYETPEEEREKLYNVISLEFSHTRLENMVQRPSTVDFIDWVDNMWPRHLKESQTESTNAILEMQYPKVQKYCLMSVRGCYTDFHVDFGGTSVWYHIHQGGKVFWLIPPTAHNLELYENWLLSGKQGDIFLGDRVSDCQRIELKQGYTFVIPSGWIHAVYTPTDTLVFGGNFLHSFNIPMQLKIYNIEDRTRVPNKFRYPFYYEMCWYVLERYVYCITNRSHLTKEFQKESLSMDLELNGLESGNGDEEAVDREPRRLSSRRSVLTSPVANGVNLDYDGLGKTCRSLPSLKKTLAGDSSSDCSRGSHNGQVWDPQCAPRKDRQVHLTHFELEGLRCLVDKLESLPLHKKCVPTGIEDEDALIADVKILLEELANSDPKLALTGVPIVQWPKRDKLKFPTRPKVRVPTIPITKPHTMKPAPRLTPVRPAAASPIVSGARRRRVRCRKCKACVQGECGVCHYCRDMKKFGGPGRMKQSCVLRQCLAPRLPHSVTCSLCGEVDQNEETQDFEKKLMECCICNEIVHPGCLQMDGEGLLNEELPNCWECPKCYQEDSSEKAQKRKMEESDEEAVQAKVLRPLRSCDEPLTPPPHSPTSMLQLIHDPVSPRGMVTRSSPGAGPSDHHSASRDERFKRRQLLRLQATERTMVREKENNPSGKKELSEVEKAKIRGSYLTVTLQRPTKELHGTSIVPKLQAITASSANLRHSPRVLVQHCPARTPQRGDEEGLGGEEEEEEEEEEEDDSAEEGGAARLNGRGSWAQDGDESWMQREVWMSVFRYLSRRELCECMRVCKTWYKWCCDKRLWTKIDLSRCKAIVPQALSGIIKRQPVSLDLSWTNISKKQLTWLVNRLPGLKDLLLAGCSWSAVSALSTSSCPLLRTLDLRWAVGIKDPQIRDLLTPPADKPGQDNRSKLRNMTDFRLAGLDITDATLRLIIRHMPLLSRLDLSHCSHLTDQSSNLLTAVGSSTRYSLTELNMAGCNKLTDQTLIYLRRIANVTLIDLRGCKQITRKACEHFISDLSINSLYCLSDEKLIQKIS

The target of the test is T1, SMYD3 (human (endogenous in D283)). Briefly: affinity purification with mass spectrometry; nuclear extracts of D283 cells immunoprecipitated with anti-SMYD3 antibody; SMYD3-bound fractions analysed by LC-MS/MS.
In the case of CCNB2 (from UniProt O95067 1-398), the binding entry is on record as “binds”. Next, cyclin D1 (from UniProt P24385 1-295): “binds”; B1: “binds”.
